These are literature values, as cited in publication PMC11242853, “The Antimicrobial Activity of Human Defensins at Physiological Non-Permeabilizing Concentrations Is Caused by the Inhibition of the Plasma Membrane H^+-ATPases” (International Journal of Molecular Sciences, 2024).

On the set-up of this series: method as in 19 sources, ref 24; PMID 3290255; doi:10.1172/JCI113527; 24. Lehrer R.I. Ganz T. Szklarek D. Selsted M.E. Modulation of the in vitro candidacidal activity of human neutrophil defensins by target cell metabolism and divalent cations J. Clin. Invest. 1988 81 || [47]; PMID 11083633; doi:10.1128/AAC.44.12.3310-3316.2000; 47. Edgerton M. Koshlukova S.E. Araujo M.W. Patel R.C. Dong J. Bruenn J.A. Salivary histatin 5 and human neutrophil defensin 1 kill Candida albicans via shared pathways Antimicrob. Agents Chemother. 2 ||| ref 20 = [20]; PMID 17074797; doi:10.1128/AAC.00478-06; 20. Vylkova S. Nayyar N. Li W. Edgerton M. Human beta-defensins kill Candida albicans in an energy-dependent and salt-sensitive manner without causing membrane disruption Antimicrob. Agents Chemother. ||| ref 24, 62 (HNP-1); 62, 63 (HNP-4); 20 (hBD-2); 12, 20 (hBD-3); 34, 35, 64 cidal and 65, 66 static (lactoferrin) ||| ref 26 (HNP-1); 12 (HNP-4); 11 (hBD-2, hBD-3); 43, 67 (lactoferrin) ||| ref 14 (HNP-1); 23 (HNP-4); Yes 11, 13 / No 20 (hBD-2); No 20 / Yes 11 (hBD-3); 31, 34, 42 (lactoferrin) ||| ... Particulars: Table 2, cited from earlier work.

“Also recorded” adds a separate entry of the source.

B1: human lactoferrin: Recombinant human apo-lactoferrin (hLf), 691 amino acid γ-core protein that inhibits microbial PM H+-ATPases; control (protein, UniProt P02788 20-710, looked up)
Lactotransferrin: GRRRSVQWCAVSQPEATKCFQWQRNMRKVRGPPVSCIKRDSPIQCIQAIAENRADAVTLDGGFIYEAGLAPYKLRPVAAEVYGTERQPRTHYYAVAVVKKGGSFQLNELQGLKSCHTGLRRTAGWNVPIGTLRPFLNWTGPPEPIEAAVARFFSASCVPGADKGQFPNLCRLCAGTGENKCAFSSQEPYFSYSGAFKCLRDGAGDVAFIRESTVFEDLSDEAERDEYELLCPDNTRKPVDKFKDCHLARVPSHAVVARSVNGKEDAIWNLLRQAQEKFGKDKSPKFQLFGSPSGQKDLLFKDSAIGFSRVPPRIDSGLYLGSGYFTAIQNLRKSEEEVAARRARVVWCAVGEQELRKCNQWSGLSEGSVTCSSASTTEDCIALVLKGEADAMSLDGGYVYTAGKCGLVPVLAENYKSQQSSDPDPNCVDRPVEGYLAVAVVRRSDTSLTWNSVKGKKSCHTAVDRTAGWNIPMGLLFNQTGSCKFDEYFSQSCAPGSDPRSNLCALCIGDEQGENKCVPNSNERYYGYTGAFRCLAENAGDVAFVKDVTVLQNTDGNNNEAWAKDLKLADFALLCLDGKRKPVTEARSCHLAMAPNHAVVSRMDKVERLKQVLLHQQAKFGRNGSDCPDKFCLFQSETKNLLFNDNTECLARLHGKTTYEKYLGPQYVAGITNLKKCSTSPLLEACEFLRK
modifications: apo form
notes: control
Turning to B1, for the setting “ref 13 (hBD-2 phospholipids), 34, 35, 36 and 39 (lactoferrin)”, the Cellular target entry was “PM (V) H^+-ATPase”. The “Cell death type (yeast)” value (ref 14 (HNP-1), 23 (HNP-4), 20, 11, 13 (hBD-2), 20, 11 (hBD-3), 36, 44, 31, 42 (lactoferrin)) is reported as “Apoptosis-like cell death; also recorded: No permeabilization”.
